{
  "source": "patent US10022366B2",
  "about": "“Extending and maintaining micropore viability of microneedle treated skin with lipid biosynthesis inhibitors for sustained drug delivery” (University of Maryland, Baltimore, priority 2013, dated 2018)",
  "assay": "Gentian violet staining/pore visualization studies",
  "type": "in vivo, hairless guinea pigs (HGP)",
  "settings": "end of the 7-day patch application period; 1.5% FLU in 200 proof ethanol",
  "note": "At least one structure is not confirmed: it was looked up by name or label, or the drawing left a doubt.",
  "data": [
    {"smiles": "CC(C)n1c(/C=C/C(O)CC(O)CC(=O)O)c(-c2ccc(F)cc2)c2ccccc21", "note": "(stereo not shown) [FLU, fluvastatin sodium]", "values": [
      {"measurement": "presence of pores (Gentian violet staining)", "result": "pores were present"}
    ]}
  ]
}
